Data: paper PMC5410327

Chains of the proteins cited; added tags and fusions are not shown.
UniProt Q86TM6: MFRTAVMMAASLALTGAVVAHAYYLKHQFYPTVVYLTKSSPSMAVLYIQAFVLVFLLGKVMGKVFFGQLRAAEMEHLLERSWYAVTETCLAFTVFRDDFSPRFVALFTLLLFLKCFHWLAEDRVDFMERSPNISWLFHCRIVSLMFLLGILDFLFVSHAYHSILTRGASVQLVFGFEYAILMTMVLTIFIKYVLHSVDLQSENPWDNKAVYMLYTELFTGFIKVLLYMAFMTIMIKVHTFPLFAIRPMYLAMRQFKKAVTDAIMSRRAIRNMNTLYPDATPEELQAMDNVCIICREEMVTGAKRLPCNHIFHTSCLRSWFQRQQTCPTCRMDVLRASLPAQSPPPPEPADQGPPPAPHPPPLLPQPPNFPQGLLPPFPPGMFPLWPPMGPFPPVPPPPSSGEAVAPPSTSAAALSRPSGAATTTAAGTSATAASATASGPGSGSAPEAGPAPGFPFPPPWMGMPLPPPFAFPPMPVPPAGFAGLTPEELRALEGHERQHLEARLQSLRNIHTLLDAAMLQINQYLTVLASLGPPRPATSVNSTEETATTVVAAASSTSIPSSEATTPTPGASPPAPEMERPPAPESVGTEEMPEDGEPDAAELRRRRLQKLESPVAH

Target: HRD1 (overexpressed) (UniProt Q86TM6)
Experiment: affinity purification with mass spectrometry; MCF7 cells overexpressing Vector or HRD1; IP samples run on SDS-PAGE, stained with Coomassie Brilliant Blue, the two whole lanes cut out for proteome analysis

- binding: binds
B1: S100A8 (protein, UniProt P05109 1-93)
chain: MLTELEKALNSIIDVYHKYSLIKGNFHAVYRDDLKKLLETECPQYIRKKGADVWFKELDINTDGAVNFQEFLILVIKMGVAAHKKSHEESHKE

These are yes or no findings as the source states them, for the method shown. Binding seen in cells or lysates may run through a third protein. Here binding means that the protein was enriched with, or labelled near, the bait; the list need not be complete.
